According to US8399490B2, “Insecticides” (Syngenta Crop Protection LLC, priority 2007, dated 2013):
Some of these results come from one statement about several compounds together.

Test system: Thrips tabaci (onion thrips)
Details: 400 ppm; mixed thrips population on sunflower leaf discs; 6 days incubation

Structure (SMILES) | activity
O=C(NC1(C2CC2)CC1)c1c(NC(=O)c2cc(C(F)(F)F)nn2-c2ncccc2Cl)c(Cl)cc2c1OC(F)(F)O2 [P.17] | over 80%
CNC(=O)c1c(NC(=O)c2cc(C(F)F)nn2-c2ncccc2Cl)c(Br)cc2c1OC(C)C2 (stereo not shown) [P.83] | over 80%
CSCC(C)(C)NC(=O)c1c(NC(=O)c2cc(Br)nn2-c2ncccc2Cl)c(Cl)cc2c1OC(F)(F)O2 [P.20] | over 80%
CSCC(C)(C)NC(=O)c1c(NC(=O)c2cc(C(F)(F)F)nn2-c2ncccc2Cl)c(Cl)cc2c1OC(F)(F)O2 [P.16] | over 80%
